Literature values as cited in paper PMC7795492, “Protein Sensing Device with Multi-Recognition Ability Composed of Self-Organized Glycopeptide Bundle” (International Journal of Molecular Sciences, 2020).
Like-named read-outs stand apart in the source and are kept apart here.

Details: cited from earlier work; for Channel formation / conformation: lipid bilayer membrane

-(Leu-Ser-Leu-Leu-Ser-Ser-Leu)3- [channel forming element reported by DeGrado et al]
Channel diameter (channel consisting of a hexamer bundle): ca. 4 nm | Channel formation / conformation: formed the ion channel | Channel formation / conformation (listed as (Leu-Ser-Leu-Leu-Ser-Ser-Leu)3): had an amphiphilic α-helix conformation and formed a channel in the lipid bilayer membrane
